These are yes or no findings as the source states them, for the method shown. Some entries that bind do so weakly or less than the wild type.
Target: CheM-T18 (Salmonella enterica serovar Typhimurium) (UniProt P02941)
Assay: two-hybrid

Chains of the proteins cited; added tags and fusions are not shown.
UniProt P02941, whole entry: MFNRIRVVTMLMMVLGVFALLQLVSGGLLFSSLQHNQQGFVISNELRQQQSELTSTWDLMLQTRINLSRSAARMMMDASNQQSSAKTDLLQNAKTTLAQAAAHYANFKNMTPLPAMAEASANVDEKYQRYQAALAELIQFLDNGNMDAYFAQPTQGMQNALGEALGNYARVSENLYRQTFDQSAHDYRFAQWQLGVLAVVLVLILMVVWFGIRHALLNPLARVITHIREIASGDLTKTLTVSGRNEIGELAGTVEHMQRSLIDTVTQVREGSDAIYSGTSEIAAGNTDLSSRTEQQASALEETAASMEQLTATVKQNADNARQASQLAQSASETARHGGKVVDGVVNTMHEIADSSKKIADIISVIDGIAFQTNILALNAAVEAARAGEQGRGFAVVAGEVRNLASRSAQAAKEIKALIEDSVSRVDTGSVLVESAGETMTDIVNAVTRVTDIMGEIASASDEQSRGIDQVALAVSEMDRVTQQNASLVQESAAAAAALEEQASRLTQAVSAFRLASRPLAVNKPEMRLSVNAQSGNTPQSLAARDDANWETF

## CheM-T18 (from UniProt P02941 1-553)
  binding: binds

— publication doi:10.1101/2021.05.14.443827
